No constants are given. Whether binding was seen depends on the method and setting. For part of these data: Binding seen in cells or lysates may run through a third protein. For part of these data: A result given as binding can be weak or reduced; the word gives no strength. Sequences can lack the tags named with a protein. Values belong to the binder of their own block, whether it stands above or below them.
How the values were obtained:
[1] = molecular target: GFP::Ik2 expressed in the fly germline (Drosophila); assay: co-IP; ovarian extract of transgenic flies expressing GFP-Ik2 and HA-Spn-F in the germline; lysis with 1% NP-40; IP with anti-GFP and protein A-coated beads; western blot with anti-HA; control ovaries expressing HA-Spn-F alone
Sec13-MBP = assay: SPR; ProteOn XPR36, GLC chip; Ik2-MBPHis (1400 RU) and Sec13-MBP (5500 RU) amine-coupled; Spn-F injected at six concentrations 0.1625 to 5 μM; PBS pH 7.4, 0.005% Tween 20, 25°C; global fit to 1:1 Langmuir model; both purified
[2] = molecular target: Kinase dead Ik2, Ik2 [K41A]-Myc (Drosophila); assay: co-IP; S2 cells co-transfected; lysis in PBS, 1% Triton X-100, protease inhibitors; IP overnight at 4°C with anti-GFP or anti-myc and protein A-coated beads; western blot with anti-HA or anti-myc; control beads without antibody

binding [1]: binds
B1: HA::Spn-F expressed in the fly germline (protein, UniProt Q9V9Y9 1-364)
chain: MEASAAKITPMASSMSASGSTNSPSSEKMNYALQVALQTIKERCIQLQRRVASMEEENQQLREASSRSEGAPRANEIGVTGDVLSLKAQVSELQRQKEQLEEHIGMVSNENRRLWSRLSQISKDQQLNALPSSTDSRAQQNQNLVRSKTFTQHSPNPHLRQKMLSDGIKDLSLEEIALDDFGASSEELGYPYNLQKVEETTSEPDANVDAKRCLDGLQELRREAMKQQQELRSVMTLLENRIALKPCPECAQKTIKKPEMADKSLETDDSLTSELKNYESQHNGHNGTPPSQRINIIQEKIKADAADAMEKTCPMCGKQYSSQVSFNAFREHVEMHFIDDALELESENSIERQFEFVSHAVGDF

binding (Sec13-MBP): no binding (tested: 5 μM)
B2: Spn-F, recombinant, MBP-His6 tag cleaved (protein, UniProt Q9V9Y9 1-364)
chain: B1 chain

binding [2]: binds
B3: HA-tagged Spindle-F (Spn-F), expressed in S2 cells (protein, UniProt Q9V9Y9 1-364)
chain: B1 chain

Source: article PMC2567969
